Laboratory results: PubChem BioAssay AID504744 (Drosophila RNAi Screening Center, 2011)
Purpose: 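Identify dsRNAs that increase or decrease phospho-dAkt after insulin treatment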 (primary screen). Cell system: Drosophila Kc167 cells. Reagent: long dsRNA against Drosophila genes, 250 ng dsRNA per well of a 384-well plate. Time to read-out: 3 days of knock-down, then overnight serum-free starvation before stimulation. Challenge: bovine insulin at 387 nM for 10 minutes after 12 h without serum. Measured: 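In-cell antibody fluorescence for phospho-dAkt in each well over DNA-dye signal, with log2 residuals expressed as z-scores adjusted for cell count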. Call rule: 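Under insulin, a gene counts as a hit if the average z-score of two replicates lies above 2.5 or below -2.5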.
The deposit covers about 23,000 reagents; below is a random part of those that have a named target and a result. Over the whole deposit, 98 (0.43%) were called active. 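Only hit calls are given; the phospho-dAkt signals, z-scores and hit direction were not deposited.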 Names joined by + are all predicted targets of the reagent.

no.	gene	DRSC id	Call
1	CG31546	DRSC12317	inactive
2	CG13046	DRSC09927	inactive
3	Ir52d	DRSC06264	inactive
4	CG32087	DRSC10806	inactive
5	Utx	DRSC02872	inactive
6	CG15282	DRSC22620	inactive
7	sv	DRSC17221	inactive
8	M6	DRSC11869	inactive
9	Nedd4	DRSC11234	inactive
10	Nedd4	DRSC21548	inactive
11	Eig71Ec	DRSC11150	inactive
12	gd	DRSC20336	inactive
13	Cyt-b5-r	DRSC03308	inactive
14	Xpac	DRSC18730	inactive
15	CG13203	DRSC06327	inactive
16	CG14488	DRSC06460	inactive
17	CG15308	DRSC17995	inactive
18	CG16820	DRSC02522	inactive
19	CG14072	DRSC02375	inactive
20	Tsp3A	DRSC18656	inactive
21	CG9568	DRSC03265	inactive
22	CG14589	DRSC04866	inactive
23	gek	DRSC04688	inactive
24	Cyt-b5	DRSC07392	inactive
25	Pcp	DRSC03395	inactive
26	dpr13	DRSC06160	inactive
27	dpr13	DRSC06464	inactive
28	CG17806	DRSC15276	inactive
29	Marcal1	DRSC02718	inactive
30	CG34457	DRSC06924	inactive
31	Ada	DRSC14463	inactive
32	Gclc	DRSC18666	inactive
33	CG1354	DRSC17902	inactive
34	AcCoAS	DRSC11477	inactive
35	AcCoAS	DRSC11603	inactive
36	AcCoAS	DRSC22850	inactive
37	NUCB1	DRSC22137	inactive
38	ZnT41F	DRSC04850	inactive
39	CG34011	DRSC00888	inactive
40	vilya	DRSC18588	inactive
41	CG17646	DRSC00507	inactive
42	CG1227	DRSC12534	inactive
43	lace	DRSC03564	inactive
44	Art9	DRSC16584	inactive
45	Nmdar1	DRSC12071	inactive
46	Nmdar1	DRSC12356	inactive
47	CG11594	DRSC08207	inactive
48	Pk34A	DRSC03398	inactive
49	caz	DRSC20317	inactive
50	caz	DRSC22594	inactive
51	Ac76E	DRSC09642	inactive
52	Ac76E	DRSC09662	inactive
53	RhoGAP1A	DRSC20649	inactive
54	RhoGAP1A	DRSC20651	inactive
55	nAChRbeta3	DRSC00325	inactive
56	CG31921	DRSC00013	inactive
57	tim	DRSC00841	inactive
58	mRF1	DRSC02880	inactive
59	Aduk	DRSC16451	inactive
60	RpLP1	DRSC00783	inactive
61	RpLP1	DRSC22145	inactive
62	spoon	DRSC18299	inactive
63	CG31183	DRSC14403	inactive
64	CG31183	DRSC15554	inactive
65	MED30	DRSC08516	inactive
66	CG7706	DRSC16295	inactive
67	Send2	DRSC01906	inactive
68	Oamb	DRSC13433	inactive
69	Oamb	DRSC15120	inactive
70	Oamb	DRSC16763	inactive
71	koi	DRSC04980	inactive
72	Ctf4	DRSC06380	inactive
73	Dscam2	DRSC08869	inactive
74	Dscam2	DRSC10198	inactive
75	Dscam2	DRSC11018	inactive
76	Dscam2	DRSC11019	inactive
77	Dscam2	DRSC22526	inactive
78	CG12836	DRSC06182	inactive
79	ND-75	DRSC18686	inactive
80	galla-2	DRSC10936	inactive
81	galla-2	DRSC21949	inactive
82	MESR6	DRSC10720	inactive
83	CG13443	DRSC06403	inactive
84	Nnk	DRSC15274	inactive
85	tou	DRSC06006	inactive
86	tou	DRSC22710	inactive
87	Lip1	DRSC03364	inactive
88	CG13311	DRSC09982	inactive
89	scro	DRSC17099	inactive
90	scro	DRSC17102	inactive
91	eIF2Bbeta	DRSC18465	inactive
92	Stt3B	DRSC16781	inactive
93	Tti1	DRSC15163	inactive
94	MFS12	DRSC07268	inactive
95	Mhc	DRSC03367	inactive
96	CG14969	DRSC08428	inactive
97	CG33475	DRSC22943	inactive
98	asRNA:CR33945	DRSC14080	inactive
99	Roc1a	DRSC18483	inactive
100	CG32811	DRSC22649	inactive
101	CG13334	DRSC06369	inactive
102	CG30377	DRSC06477	inactive
103	CG30377	DRSC06799	inactive
104	CAH5	DRSC15372	inactive
105	CG6908	DRSC16131	inactive
106	nkd	DRSC11376	inactive
107	lncRNA:CR30055	DRSC22439	inactive
108	CG6753	DRSC16108	inactive
109	CG8837	DRSC00711	inactive
110	CG14020	DRSC02350	inactive

Records above whose gene name starts with D or d:
gene	DRSC id	Call
dpr13	DRSC06160	inactive
dpr13	DRSC06464	inactive
Dscam2	DRSC08869	inactive
Dscam2	DRSC10198	inactive
Dscam2	DRSC11018	inactive
Dscam2	DRSC11019	inactive
Dscam2	DRSC22526	inactive

The results go on:
no.	gene	DRSC id	Call
111	Jon99Ciii	DRSC16859	inactive
112	Lcp65Ad	DRSC11211	inactive
113	CG34168	DRSC01938	inactive
114	pnt	DRSC17028	inactive
115	RunxA	DRSC20400	inactive
116	RunxA	DRSC20498	inactive
117	RunxA	DRSC20524	inactive
118	RunxA	DRSC21915	inactive
119	CG15022	DRSC08476	inactive
120	EMC3	DRSC02989	inactive
121	Gen	DRSC09679	inactive
122	rdx	DRSC14526	inactive
123	rdx	DRSC16580	inactive
124	CG14629	DRSC18476	inactive
125	CG34169	DRSC01579	inactive
126	Est-6	DRSC11162	inactive
127	Bulli	DRSC10974	inactive
128	AsnS	DRSC11468	inactive
129	Dg	DRSC06718	inactive
130	Sf3b2	DRSC00619	inactive
131	Fer1	DRSC12507	inactive
132	Fer1	DRSC12555	inactive
133	Flo2	DRSC19062	inactive
134	Flo2	DRSC20244	inactive
135	CG13055	DRSC09936	inactive
136	CG8249	DRSC07125	inactive
137	HDAC1	DRSC08696	active
138	Pstk + CG14210 + Tim9b	DRSC19566	inactive
139	sw	DRSC20388	inactive
140	Chc	DRSC20229	inactive
141	CG30148	DRSC06391	inactive
142	CG3701 (retired record)	DRSC04408	inactive
143	CG3701 (retired record)	DRSC04409	active
144	CG31075	DRSC16016	inactive
145	RpL27A	DRSC00781	inactive
146	CG10560	DRSC14256	inactive
147	CG7369	DRSC11822	inactive
148	ppk24	DRSC15093	inactive
149	CG8389	DRSC07158	inactive
150	CG8389	DRSC22855	inactive
151	CG11309	DRSC11650	inactive
152	CG32201	DRSC22452	inactive
153	RpS25	DRSC16837	inactive
154	Mst98Ca	DRSC16749	inactive
155	CG14646	DRSC12232	inactive
156	CG14646	DRSC21316	inactive
157	CG14551	DRSC14894	inactive
158	CG42729	DRSC10236	inactive
159	CG13026	DRSC09906	inactive
160	CG17778	DRSC18504	inactive
161	CG12851	DRSC04131	inactive
162	COX5B	DRSC02115	inactive
163	Atg16	DRSC15052	inactive
164	Atg16	DRSC15300	inactive
165	Atg16	DRSC15375	inactive
166	CG16959	DRSC10230	inactive
167	Tmtc3	DRSC04444	inactive
168	Trissin	DRSC14994	inactive
169	CG42816 + CG42815	DRSC11230	inactive
170	CG4866	DRSC06899	inactive
171	Jon66Ci	DRSC10772	inactive
172	Con	DRSC08652	inactive
173	sstn	DRSC10753	inactive
174	eIF3g1	DRSC18427	inactive
175	hng3	DRSC08367	inactive
176	ord	DRSC04706	inactive
177	CG14630	DRSC18166	inactive
178	CG14630	DRSC18653	inactive
179	Eph	DRSC17164	inactive
180	rut	DRSC20367	inactive
181	Ppt2	DRSC02786	inactive
182	CG33310	DRSC01897	inactive
183	DIP-eta	DRSC02342	inactive
184	CG17159 + CG17162	DRSC20899	inactive
185	CG17159 + CG17162	DRSC20900	inactive
186	CG2224	DRSC15429	inactive
187	Gos28	DRSC16292	inactive
188	Gos28	DRSC22859	inactive
189	NimB2	DRSC22645	inactive
190	Vps2	DRSC14886	inactive
191	TpnC25D	DRSC02965	inactive
192	CG14329	DRSC14808	inactive
193	Arl6	DRSC07031	inactive
194	CG44085	DRSC02922	inactive
195	Cul6	DRSC09830	inactive
196	CG11899	DRSC16656	inactive
197	Dtd	DRSC15362	inactive
198	Sap-r	DRSC16849	inactive
199	Sap-r	DRSC21916	inactive
200	MED20	DRSC03463	inactive
